“And” between values parts separate entries of the source, which are not always exact repeats. Equal entries are not always repeated. This is one part of the list. Shown are side measurements of this screen, not its main read-out; they come without a call. Compounds called inactive in the main read-out are mostly missing here. Potencies come from curve fits of mixed quality, noted in brackets.
Assay: qHTS Assay for Lipid Storage Modulators in Drosophila S3 Cells;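 for cell number change: cells counted by Cell Tracker Red CMTPX staining in the red channel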
Settings: BODIPY lipid droplet fluorescence, 18-24 h; for cell number change: measured here: cell count max response, cells fed with added oleic acid
In short: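 Drosophila S3 cells got compounds at several concentrations plus oleic acid (400 uM solution). Laser-scanning cytometry with 488 nm excitation read lipid droplets at 500-530 nm and cells at 575-640 nm. Percent activity was relative to 20 uM Triacsin C.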

[1] = measured here: lipid fluorescence (Fed channel) AC50, cells fed with added oleic acid
[2] = measured here: cell number channel AC50, cells fed with added oleic acid

Compound	cell number change	AC50 [1]	AC50 [2]
O=C(Nc1cccc2cccnc12)c1cc(F)c(F)cc1Cl	8.76%	29.1 µM [rising, single point]	
Cc1ccc(C)c(S(=O)(=O)N2CCCOC2CNC(=O)C(=O)NCc2ccco2)c1 (stereo unspecified)	8.61%	9.2 µM [rising, partial curve, poor fit]	2.06 µM [falling, partial curve]
CCC(C(=O)NCCN1CCOCC1)n1c2ccccc2c2nc(=O)cc(C)n21 (stereo unspecified)	-3.54%	6.51 µM [falling, partial curve, poor fit]	
CCc1ccc(-c2cc(C(=O)N/N=C/c3ccccn3)[nH]n2)cc1	-31.5%	20.6 µM [falling, single point]	20.6 µM [falling, single point]
CCOc1ccc(N2CC(C(=O)Nc3nnc(Cc4ccc(OC)cc4)s3)CC2=O)cc1 (stereo unspecified)	11.3%	29.1 µM [falling, single point]	
Cc1ccc(F)cc1NC(=O)CSCc1c(C)noc1C	11.3%	2.31 µM [rising, partial curve, poor fit]	
O=C(OCCN1CCCCC1)c1ccc(Cl)cc1	-22.4%		0.651 µM [falling, full curve]
COc1ccc(/C=N/n2c(=O)[nH]c3c([nH]c4ccc(Br)cc43)c2=O)cc1CN1CCOCC1	31.1%		0.00517 µM [rising, full curve, poor fit]
O=[N+]([O-])c1ccc(Sc2cccc3cccnc23)c([N+](=O)[O-])c1	-52.8%	3.66 µM [rising, single point]	29.1 µM [falling, single point]
COCCNc1nc2nonc2nc1N(C)Cc1cccc2cnccc12	15.9%	0.00461 µM [rising, full curve, poor fit]	
COc1cccc(-n2cc(CNCc3c(C(=O)N(C)C)nc4ccc(Cl)cn34)cn2)c1	-43.2%	16.4 µM [falling, partial curve]	8.2 µM [falling, partial curve]
O=C(Cc1ccc([N+](=O)[O-])cc1)Nc1ccc(Cl)cc1			6.51 µM [falling, single point]
COc1ccc(N(C(=O)c2ccc3c(c2)OCO3)C2C=CS(=O)(=O)C2)c(OC)c1 (stereo unspecified)	-20.9%	4.11 µM [rising, full curve]	7.31 µM [falling, partial curve, poor fit]
CCOCCCn1c(=S)[nH]c2ncccc2c1=O	-2.09%	0.82 µM [falling, full curve, poor fit]	0.00461 µM [falling, full curve, poor fit]
CC1CCCCN1S(=O)(=O)c1ccc(C(=O)Nc2nnc(-c3ccco3)o2)cc1 (stereo unspecified)	-5.82%		
O=C(Nc1ccc(N2CCCCC2)c(Cl)c1)c1ccc(N2CCOCC2)c([N+](=O)[O-])c1	-36.2%	23.1 µM [falling, single point]	20.6 µM [falling, single point]
COc1ccc(-c2nc(NC(=O)c3nc4nccc(C)n4n3)sc2C)cc1		5.8 µM [rising, single point]	0.116 µM [rising, full curve, poor fit]
CCc1ccc(Nc2n[n+](-c3ccccc3)c(/C=C/c3ccccc3)s2)cc1	-4.21%	29.1 µM [falling, single point]	
CN1C(=O)C(CC(=O)NC2CCCCC2)SC1=Nc1ccccc1 (stereo unspecified)	11.2%	1.64 µM [falling, partial curve, poor fit]	

Compound	cell number change	AC50 [1]	AC50 [2]
Cn1c(=O)c2c(nc(SCC(=O)NCC3CCCO3)n2C)n(C)c1=O (stereo unspecified)	2.65%	6.51 µM [rising, single point]	
Cc1ccc(N2CCCCn3c2nc2c3c(=O)[nH]c(=O)n2C)cc1	0.25%		
Cc1cc(C)cc(OCC(=O)N2CCc3ccccc3C2)c1	6.3%	16.4 µM [rising, partial curve]	
CCOC(=O)c1c(C)nc2c(c1-c1ccc(OC)c(OC)c1)C(=O)c1ccccc1-2	2.43%	3.26 µM [rising, full curve]	
COc1cc(C2=NOC(C(=O)Nc3ccc(C(C)=O)cc3)C2)cc(OC)c1OC (stereo unspecified)	33.3%		
O=C1Nc2ccccc2C1C(C[N+](=O)[O-])c1ccccc1 (stereo unspecified)	0.709%	6.51 µM [rising, partial curve, poor fit]	
COc1ccc(C(=O)N2CCc3cc(OC)c(OC)cc3C2c2ccc(OC)c(OC)c2)cc1 (stereo unspecified)	13.9%	29.1 µM [rising, single point]	
CC(=O)c1sc2nc(CSc3nncn3C)[nH]c(=O)c2c1C	36.2%	29.1 µM [rising, single point]	
COc1ccc(-n2c(CCc3ccccc3)n[nH]c2=S)cc1	-42.1%		
CCOC(=O)C1CCCN(C(=O)c2ccc3[nH]c4c(c3c2)CC(C)CC4)C1 (stereo unspecified)	-18.2%	20.6 µM [falling, single point]	
CC(C)(C)c1ccc(C(=O)NCC(=O)OCC(=O)NC(=O)NC2CCCC2)cc1	4.31%	0.0231 µM [falling, full curve, poor fit]	7.31 µM [falling, single point]
O=C(CSc1cc(Cl)ccc1Cl)NC1CCCc2ccccc21 (stereo unspecified)		2.91 µM [rising, partial curve, poor fit]	
COc1ccc(/C=N/Nc2nc(N3CCCC3)nc(N3CCCC3)n2)c(OC)c1OC	-8.89%	6.51 µM [rising, partial curve]	6.51 µM [rising, partial curve, poor fit]
Cc1onc(-c2c(Cl)cccc2Cl)c1C(=O)N1CCCc2ccccc21	66.4%	29.1 µM [rising, single point]	29.1 µM [rising, single point]
CCOc1c(Br)cc(Br)cc1/C=C1\SC(N)=NC1=O	-9.52%		
COc1ccccc1/C=C1\SC(=S)N(CCC(=O)NNC(=O)c2ccccc2O)C1=O	14.7%	20.6 µM [rising, single point]	2.31 µM [rising, single point]
Cc1cccc(CNc2ncnc3ccc(-c4ccc5c(c4)OCCO5)cc23)c1	-31.4% and -12.2%	18.4 µM [falling, partial curve]	16.4 µM [falling, single point]
O=C(Nc1cccnc1)c1cccc(S(=O)(=O)N2CCc3ccccc32)c1	-30.1%	0.326 µM [falling, full curve, poor fit]	0.82 µM [falling, full curve, poor fit]
N#Cc1c(NC(=O)CN2CCOCC2)oc(-c2ccccc2)c1-c1ccccc1	-14.3%	5.17 µM [rising, partial curve, poor fit]	

Compound	cell number change	AC50 [1]	AC50 [2]
Cc1csc(NC(=O)CSc2nnc(-c3ccoc3C)n2CCc2ccccc2)n1	-23.5%		
COc1ccc(N2CCN(C(=S)Nc3cccc(C)c3C)CC2)cc1	4.31%	7.31 µM [rising, partial curve]	
COc1ccc(S(=O)(=O)N2CCCC(C(=O)N3CCN(C)CC3)C2)cc1Cl (stereo unspecified)	3.17%	32.6 µM [rising, single point]	
O=C(COc1ccc(Cl)cc1)Nc1nc(-c2ccc(S(=O)(=O)N3CCOCC3)cc2)cs1	12.8%		
CCOC(=O)N1CCC(NC(=O)c2ccc(CS(=O)c3ccc(Cl)cc3)o2)CC1 (stereo unspecified)	-1.21%		
O=C(CN1CCc2ccccc2C1)Nc1ccccc1C(F)(F)F	5.83%	29.1 µM [rising, single point]	
Cc1ccc(N2CC(C(=O)NCc3cccs3)CC2=O)cc1 (stereo unspecified)	7.29%	3.26 µM [falling, partial curve]	
CCC1CCc2sc(C(=O)NCc3ccccn3)cc2C1 (stereo unspecified)	24.1%	29.1 µM [rising, single point]	
O=C(c1cccs1)N1CCN(Cc2ccccc2[N+](=O)[O-])CC1	-0.0784%	9.2 µM [rising, partial curve]	
CC(=O)c1cccc(CN2CCC(CO)(CCOc3ccccc3)CC2)c1	21%		
COc1ccc(OC)c(S(=O)(=O)Nc2ccc3[nH]c(=O)[nH]c3c2)c1	28.2%	6.51 µM [rising, single point]	
COc1ccc(CN2CN=C(Nc3nc4ccccc4s3)NC2)cc1	-4.52%	6.51 µM [rising, full curve, poor fit]	
Cc1cccc(-c2ccc3ncnc(NCc4cccc(F)c4)c3c2)c1	-41.2%		6.51 µM [falling, full curve]
CCCc1nnc(NC(=O)CN2CCN(C)CC2)s1	20.7%	0.92 µM [falling, full curve]	0.231 µM [falling, full curve, poor fit]
Cc1ccc(S(=O)(=O)N2CCN(C(=O)CSc3ncn[nH]3)CC2)cc1		14.6 µM [falling, partial curve]	
COC(=O)c1cc(O)cc(OC)c1Oc1cc(C)cc(O)c1C(=O)O	-46.7%	10.3 µM [falling, partial curve]	11.6 µM [falling, partial curve]
COc1ccccc1N1CCN(Cc2cc(OC)c3c(c2)OCO3)CC1	-11.8%	0.103 µM [falling, full curve, poor fit]	
CC(C)NC(=S)N/N=C/c1cc(Br)ccc1O	-33.9%	8.2 µM [falling, partial curve, poor fit]	18.4 µM [falling, partial curve, poor fit]

Taken from the entries so far, 3 compounds:
Compound	cell number change	AC50 [1]	AC50 [2]
O=C(CN1CCc2ccccc2C1)Nc1ccccc1C(F)(F)F	5.83%	29.1 µM [rising, single point]	
Cc1ccc(N2CC(C(=O)NCc3cccs3)CC2=O)cc1 (stereo unspecified)	7.29%	3.26 µM [falling, partial curve]	
CCC1CCc2sc(C(=O)NCc3ccccn3)cc2C1 (stereo unspecified)	24.1%	29.1 µM [rising, single point]	
